Assay [1] has as its target STAT3 (Signal Transducer and Activator of Transcription 3), endogenous (human (endogenous in A549)) (UniProt P40763). As to the kind of experiment: co-IP; A549 cell lysates (200 μg protein; 50 mM Tris-HCl pH 8.0, 250 mM NaCl, 5 mM EDTA, 1 mM DTT, 5% glycerol) immunoprecipitated overnight at 4 °C with anti-STAT3 or anti-HP1α bound to protein G-agarose; Western blot of endogenous proteins. In general terms: In western blotting, separated proteins are transferred to a membrane and probed.

Amino acid sequences for entries named in this document (tags omitted).
UniProt P40763: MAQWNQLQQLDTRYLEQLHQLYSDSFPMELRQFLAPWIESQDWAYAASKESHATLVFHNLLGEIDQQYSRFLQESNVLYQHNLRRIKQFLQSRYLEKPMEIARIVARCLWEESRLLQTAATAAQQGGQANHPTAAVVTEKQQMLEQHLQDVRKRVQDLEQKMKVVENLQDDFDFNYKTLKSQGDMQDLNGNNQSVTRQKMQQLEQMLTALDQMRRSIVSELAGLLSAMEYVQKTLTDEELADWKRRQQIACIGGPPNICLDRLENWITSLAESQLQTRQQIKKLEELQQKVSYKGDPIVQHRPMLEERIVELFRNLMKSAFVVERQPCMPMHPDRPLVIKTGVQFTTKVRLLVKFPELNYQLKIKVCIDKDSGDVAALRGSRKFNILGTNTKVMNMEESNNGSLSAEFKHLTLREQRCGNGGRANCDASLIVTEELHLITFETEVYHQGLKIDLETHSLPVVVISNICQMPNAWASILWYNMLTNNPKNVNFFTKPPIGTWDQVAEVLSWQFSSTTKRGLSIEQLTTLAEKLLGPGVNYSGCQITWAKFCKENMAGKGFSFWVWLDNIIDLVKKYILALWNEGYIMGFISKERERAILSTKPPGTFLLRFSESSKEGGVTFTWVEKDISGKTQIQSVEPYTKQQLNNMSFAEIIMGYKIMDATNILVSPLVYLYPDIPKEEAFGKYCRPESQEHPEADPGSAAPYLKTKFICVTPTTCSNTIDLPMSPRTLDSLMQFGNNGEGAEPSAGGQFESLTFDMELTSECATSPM
UniProt P45973: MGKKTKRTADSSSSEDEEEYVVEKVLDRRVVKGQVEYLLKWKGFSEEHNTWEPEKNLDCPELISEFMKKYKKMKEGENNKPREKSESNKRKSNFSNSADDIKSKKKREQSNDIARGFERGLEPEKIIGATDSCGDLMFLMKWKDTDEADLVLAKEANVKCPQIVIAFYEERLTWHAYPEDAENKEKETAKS

The target is the same in assay [2]. As to the kind of experiment: FRET or BRET; fixed A549 cells immunostained with anti-HP1α-Alexa488 (donor) and anti-STAT3-Alexa546 (acceptor) primary and secondary antibody pairs; Leica confocal microscope with FRET software; untreated cells.

Results are given in words; binding and its absence hold for the method and conditions named. In cells and extracts the contact can be indirect. Some binding calls cover weakened binding; strength is not graded here.

On to “Heterochromatin Protein 1 alpha (HP1α), endogenous (from UniProt P45973 1-191)”, for which the binding result in assay [1] and in assay [2] was “binds” in each case.

(Values after PMC7036253.)
